Reference: article PMC7364481

Protein sequences, listed by entry. Tags and fused reporters are not part of them. Residues count along the entry.
UniProt O35085, 220-392 S312A: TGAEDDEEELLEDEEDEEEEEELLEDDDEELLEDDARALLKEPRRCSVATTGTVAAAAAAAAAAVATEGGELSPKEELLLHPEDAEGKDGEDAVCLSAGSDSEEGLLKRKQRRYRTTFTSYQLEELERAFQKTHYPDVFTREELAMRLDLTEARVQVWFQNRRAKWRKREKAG
UniProt O35085, 220-392 S312E: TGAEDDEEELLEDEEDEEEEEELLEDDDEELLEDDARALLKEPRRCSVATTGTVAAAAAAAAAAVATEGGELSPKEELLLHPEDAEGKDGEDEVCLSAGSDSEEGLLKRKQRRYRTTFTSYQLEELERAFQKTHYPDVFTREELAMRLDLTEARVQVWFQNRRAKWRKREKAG
UniProt O35085, 220-392 S316A: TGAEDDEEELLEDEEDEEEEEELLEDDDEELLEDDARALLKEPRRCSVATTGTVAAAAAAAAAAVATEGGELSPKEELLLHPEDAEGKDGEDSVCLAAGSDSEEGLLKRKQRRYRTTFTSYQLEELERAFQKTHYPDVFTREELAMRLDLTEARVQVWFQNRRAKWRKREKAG
UniProt O35085, 220-392 S319E: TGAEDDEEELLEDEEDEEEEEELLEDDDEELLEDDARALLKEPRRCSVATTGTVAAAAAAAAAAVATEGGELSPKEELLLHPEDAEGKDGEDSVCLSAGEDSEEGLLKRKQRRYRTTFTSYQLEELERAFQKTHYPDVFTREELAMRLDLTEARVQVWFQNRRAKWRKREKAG
UniProt O35085, 220-392 S316E: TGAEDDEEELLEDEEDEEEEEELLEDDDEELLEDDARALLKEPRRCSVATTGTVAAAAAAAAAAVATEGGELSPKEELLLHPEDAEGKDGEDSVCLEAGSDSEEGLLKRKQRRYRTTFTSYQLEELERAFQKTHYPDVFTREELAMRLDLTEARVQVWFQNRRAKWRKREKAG
UniProt O35085, 220-392 S319A: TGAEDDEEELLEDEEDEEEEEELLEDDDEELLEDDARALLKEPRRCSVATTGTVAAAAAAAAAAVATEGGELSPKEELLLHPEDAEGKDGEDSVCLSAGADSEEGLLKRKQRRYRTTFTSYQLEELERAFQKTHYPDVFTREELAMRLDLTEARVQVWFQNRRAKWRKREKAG

Tests used:
Assay in all cases: EMSA
Details in all cases: 5 ug protein per lane, LightShift chemiluminescent EMSA kit, 6% polyacrylamide gel, binding buffer, recombinant protein, residues …, protein details: N-terminal GST (pGEX-4T-2), label: biotin
[1] = target: GST-ARX(220-392) S312 LOF S312A (UniProt O35085)
[2] = target: GST-ARX(220-392) S312 GOF S312E (UniProt O35085)
[3] = target: GST-ARX(220-392) S316 LOF S316A (UniProt O35085)
[4] = target: GST-ARX(220-392) S319 GOF S319E (UniProt O35085)
[5] = target: GST-ARX(220-392) S316 GOF S316E (UniProt O35085)
[6] = target: GST-ARX(220-392) S319 LOF S319A (UniProt O35085)

Measured: binding result

TCTTAACATTAAGGTAATTAAATATGAGCTCAC (double strand) [SIX1 probe]
binds: all assays above

Construct, isoform or probe ends are uncertain for at least one entry. At least one verdict rests on a figure or table, not on a statement of the authors.
